Assay results: paper PMC10681259
Results are given in words; binding and its absence hold for the method and conditions named. In cells and extracts the contact can be indirect. These calls come from enrichment with a bait or labelling near it, and not all partners need be listed.

Protein sequences, listed by entry. Tags and fused reporters are not part of them. Lines headed by an entry give the natural chain unless they say otherwise; changes in a name come on top.
UniProt P22147: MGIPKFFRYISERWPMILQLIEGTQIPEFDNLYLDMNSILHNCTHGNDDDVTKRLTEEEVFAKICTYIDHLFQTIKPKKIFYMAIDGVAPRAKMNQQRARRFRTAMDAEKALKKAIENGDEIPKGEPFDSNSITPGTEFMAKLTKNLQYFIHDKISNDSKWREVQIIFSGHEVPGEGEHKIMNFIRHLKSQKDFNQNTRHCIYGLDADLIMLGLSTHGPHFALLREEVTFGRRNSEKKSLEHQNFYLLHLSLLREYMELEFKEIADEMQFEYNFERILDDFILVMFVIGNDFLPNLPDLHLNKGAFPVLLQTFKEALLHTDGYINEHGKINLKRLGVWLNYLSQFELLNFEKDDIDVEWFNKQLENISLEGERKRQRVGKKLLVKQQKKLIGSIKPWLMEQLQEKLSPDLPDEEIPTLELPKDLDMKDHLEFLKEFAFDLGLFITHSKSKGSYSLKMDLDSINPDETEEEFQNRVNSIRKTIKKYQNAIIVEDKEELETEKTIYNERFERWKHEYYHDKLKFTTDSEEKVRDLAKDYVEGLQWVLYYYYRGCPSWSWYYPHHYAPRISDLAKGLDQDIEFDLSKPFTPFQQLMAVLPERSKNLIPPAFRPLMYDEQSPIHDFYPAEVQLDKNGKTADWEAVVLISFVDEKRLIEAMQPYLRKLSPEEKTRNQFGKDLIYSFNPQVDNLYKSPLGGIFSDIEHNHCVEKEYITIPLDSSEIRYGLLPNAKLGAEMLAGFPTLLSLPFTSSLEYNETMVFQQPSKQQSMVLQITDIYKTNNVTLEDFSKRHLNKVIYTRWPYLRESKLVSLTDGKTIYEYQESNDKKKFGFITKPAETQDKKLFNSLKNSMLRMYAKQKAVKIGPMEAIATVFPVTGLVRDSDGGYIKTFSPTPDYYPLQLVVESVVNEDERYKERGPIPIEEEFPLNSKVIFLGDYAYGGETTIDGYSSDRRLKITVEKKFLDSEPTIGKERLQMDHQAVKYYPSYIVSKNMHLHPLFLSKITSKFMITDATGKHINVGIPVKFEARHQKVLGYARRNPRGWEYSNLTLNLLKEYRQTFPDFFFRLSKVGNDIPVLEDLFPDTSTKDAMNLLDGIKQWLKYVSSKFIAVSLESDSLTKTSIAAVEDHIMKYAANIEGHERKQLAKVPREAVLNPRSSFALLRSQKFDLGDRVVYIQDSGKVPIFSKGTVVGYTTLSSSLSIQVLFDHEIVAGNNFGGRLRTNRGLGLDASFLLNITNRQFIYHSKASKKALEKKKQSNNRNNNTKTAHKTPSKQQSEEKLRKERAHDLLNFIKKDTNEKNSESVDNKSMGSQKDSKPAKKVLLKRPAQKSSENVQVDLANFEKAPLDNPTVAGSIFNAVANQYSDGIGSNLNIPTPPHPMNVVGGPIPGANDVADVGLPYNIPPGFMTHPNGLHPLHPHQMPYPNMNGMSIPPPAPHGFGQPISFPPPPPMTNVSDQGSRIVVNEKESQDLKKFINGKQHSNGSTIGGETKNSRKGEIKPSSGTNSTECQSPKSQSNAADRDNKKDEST

B1: Dcp1 (protein, UniProt Q12517 1-231)
chain: MTGAATAAENSATQLEFYRKALNFNVIGRYDPKIKQLLFHTPHASLYKWDFKKDEWNKLEYQGVLAIYLRDVSQNTNLLPVSPQEVDIFDSQNGSNNIQVNNGSDNSNRNSSGNGNSYKSNDSLTYNCGKTLSGKDIYNYGLIILNRINPDNFSMGIVPNSVVNKRKVFNAEEDTLNPLECMGVEVKDELVIIKNLKHEVYGIWIHTVSDRQNIYELIKYLLENEPKDSFA
B2: Dcp2 (enzyme, UniProt P53550 1-970)
chain: MSLPLRHALENVTSVDRILEDLLVRFIINCPNEDLSSVERELFHFEEASWFYTDFIKLMNPTLPSLKIKSFAQLIIKLCPLVWKWDIRVDEALQQFSKYKKSIPVRGAAIFNENLSKILLVQGTESDSWSFPRGKISKDENDIDCCIREVKEEIGFDLTDYIDDNQFIERNIQGKNYKIFLISGVSEVFNFKPQVRNEIDKIEWFDFKKISKTMYKSNIKYYLINSMMRPLSMWLRHQRQIKNEDQLKSYAEEQLKLLLGITKEEQIDPGRELLNMLHTAVQANSNNNAVSNGQVPSSQELQHLKEQSGEHNQQKDQQSSFSSQQQPSIFPSLSEPFANNKNVIPPTMPMANVFMSNPQLFATMNGQPFAPFPFMLPLTNNSNSANPIPTPVPPNFNAPPNPMAFGVPNMHNLSGPAVSQPFSLPPAPLPRDSGYSSSSPGQLLDILNSKKPDSNVQSSKKPKLKILQRGTDLNSIKQNNNDETAHSNSQALLDLLKKPTSSQKIHASKPDTSFLPNDSVSGIQDAEYEDFESSSDEEVETARDERNSLNVDIGVNVMPSEKDSRRSQKEKPRNDASKTNLNASAESNSVEWGPGKSSPSTQSKQNSSVGMQNKYRQEIHIGDSDAYEVFESSSDEEDGKKLEELEQTQDNSKLISQDILKENNFQDGEVPHRDMPTESNKSINETVGLSSTTNTVKKVPKVKILKRGETFASLANDKKAFDSSSNVSSSKDLLQMLRNPISSTVSSNQQSPKSQHLSGDEEIMMMLKRNSVSKPQNSEENASTSSINDANASELLGMLKQKEKDITAPKQPYNVDSYSQKNSAKGLLNILKKNDSTGYPRTEGGPSSEMSTSMKRNDATNNQELDKNSTELLNYLKPKPLNDGYENISNKDSSHELLNILHGNKNSSAFNNNVYATDGYSLASDNNENSSNKLLNMLQNRSSAINEPNFDVRSNGTSGSNELLSILHRK
B3: Edc3 (protein, UniProt P39998 1-551)
chain: MSQFVGFGVQVELKDGKLIQGKIAKATSKGLTLNDVQFGDGGKSQAFKVRASRLKDLKVLTVASQSGKRKQQRQQQQQNDYNQNRGEHIDWQDDDVSKIKQQEDFDFQRNLGMFNKKDVFAQLKQNDDILPENRLQGHNRKQTQLQQNNYQNDELVIPDAKKDSWNKISSRNEQSTHQSQPQQDAQDDLVLEDDEHEYDVDDIDDPKYLPITQSLNITHLIHSATNSPSINDKTKGTVINDKDQVLAKLGQMIISQSRSNSTSLPAANKQTTIRSKNTKQNIPMATPVQLLEMESITSEFFSINSAGLLENFAVNASFFLKQKLGGRARLRLQNSNPEPLVVILASDSNRSGAKALALGRHLCQTGHIRVITLFTCSQNELQDSMVKKQTDIYKKCGGKIVNSVSSLESAMETLNSPVEIVIDAMQGYDCTLSDLAGTSEVIESRIKSMISWCNKQRGSTKVWSLDIPNGFDAGSGMPDIFFSDRIEATGIICSGWPLIAINNLIANLPSLEDAVLIDIGIPQGAYSQRTSLRKFQNCDLFVTDGSLLLDL
B4: Pby1 (protein, UniProt P38254 1-753)
chain: MRVLITNDDGPLSDQFSPYIRPFIQHIKRNYPEWKITVCVPHVQKSWVGKAHLAGKNLTAQFIYSKVDAEDNTFWGPFIQPQIRSENSKLPYVLNAEIPKDTIEWILIDGTPASCANIGLHLLSNEPFDLVLSGPNVGRNTSAAYITSSGTVGGAMESVITGNTKAIAISWAYFNGLKNVSPLLMEKASKRSLDVIKHLVKNWDPKTDLYSINIPLVESLSDDTKVYYAPIWENRWIPIFNGPHINLENSFAEIEDGNESSSISFNWAPKFGAHKDSIHYMDEYKDRTVLTDAEVIESEMISVTPMKATFKGVNHLLGELKLTEEENNLSKTNNLIVVSIDPMEYIYKPLTHALKKYLPQVEIVSNLPEFDNGGCEKEMKVFHYGDYEQLDMDKLMELPNNYFTNSYIYRKALIRKHFLSHTIQTYTAKNPESILKKAYLESFTIDLDYAEFLDDALDENWELRQELENESQDKWWIVKPSMSDKGQGIRVFKTIEDLQAIFDSFDDEDSEAEESGNDDDADDVNGEFMDNNKVNISQLRHFIIQEYLTNPLLLASMDNRKFHIRCYVVCRGDLQVFVYDRMLALFAAKPFVPLDPYAYSVTDLKDLECHLTNTCLQSKKKDKDSSVLEFDSIEEIPNERKSNIKEQIHSITNDVFLAAVNVNRLNFQPLPNAFETYGVDFLIDSNYEVKLLEINAFPDFKQTGKDLKNLIDELFDDTVKYCVTPIFNENRNKTDDETDPNFVKVIDYTSNGW
B5: Pat1 (protein, UniProt P25644 1-796)
chain: MSFFGLENSGNARDGPLDFEESYKGYGEHELEENDYLNDETFGDNVQVGTDFDFGNPHSSGSSGNAIGGNGVGATARSYVAATAEGISGPRTDGTAAAGPLDLKPMESLWSTAPPPAMAPSPQSTMAPAPAPQQMAPLQPILSMQDLERQQRQMQQQFMNFHAMGHPQGLPQGPPQQQFPMQPASGQPGPSQFAPPPPPPGVNVNMNQMPMGPVQVPVQASPSPIGMSNTPSPGPVVGATKMPLQSGRRSKRDLSPEEQRRLQIRHAKVEKILKYSGLMTPRDKDFITRYQLSQIVTEDPYNEDFYFQVYKIIQRGGITSESNKGLIARAYLEHSGHRLGGRYKRTDIALQRMQSQVEKAVTVAKERPSKLKDQQAAAGNSSQDNKQANTVLGKISSTLNSKNPRRQLQIPRQQPSDPDALKDVTDSLTNVDLASSGSSSTGSSAAAVASKQRRRSSYAFNNGNGATNLNKSGGKKFILELIETVYEEILDLEANLRNGQQTDSTAMWEALHIDDSSYDVNPFISMLSFDKGIKIMPRIFNFLDKQQKLKILQKIFNELSHLQIIILSSYKTTPKPTLTQLKKVDLFQMIILKIIVSFLSNNSNFIEIMGLLLQLIRNNNVSFLTTSKIGLNLITILISRAALIKQDSSRSNILSSPEISTWNEIYDKLFTSLESKIQLIFPPREYNDHIMRLQNDKFMDEAYIWQFLASLALSGKLNHQRIIIDEVRDEIFATINEAETLQKKEKELSVLPQRSQELDTELKSIIYNKEKLYQDLNLFLNVMGLVYRDGEISELK

Target: T1, eIF2A-TAP (S. cerevisiae) (UniProt P53235)
T1 sequence: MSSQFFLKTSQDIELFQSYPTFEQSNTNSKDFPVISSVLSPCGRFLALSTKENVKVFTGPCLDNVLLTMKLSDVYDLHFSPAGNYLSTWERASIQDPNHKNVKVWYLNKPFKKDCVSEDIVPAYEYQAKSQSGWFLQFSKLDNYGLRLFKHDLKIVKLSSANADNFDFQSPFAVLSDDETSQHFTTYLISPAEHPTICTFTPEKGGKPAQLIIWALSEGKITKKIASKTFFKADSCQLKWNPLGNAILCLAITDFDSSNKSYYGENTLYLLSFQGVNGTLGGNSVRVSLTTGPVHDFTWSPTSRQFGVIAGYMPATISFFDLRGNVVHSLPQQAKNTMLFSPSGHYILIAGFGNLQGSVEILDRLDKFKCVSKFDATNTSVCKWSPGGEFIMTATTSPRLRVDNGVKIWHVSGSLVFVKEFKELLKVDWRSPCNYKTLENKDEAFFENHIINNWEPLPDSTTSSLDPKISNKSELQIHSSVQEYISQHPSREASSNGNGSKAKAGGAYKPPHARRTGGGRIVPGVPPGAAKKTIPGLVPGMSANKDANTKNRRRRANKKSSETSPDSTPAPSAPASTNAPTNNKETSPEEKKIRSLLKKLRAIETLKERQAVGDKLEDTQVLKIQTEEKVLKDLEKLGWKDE
Assay: affinity purification with mass spectrometry; eIF2A-TAP as bait on IgG-coupled magnetic beads, lysate of a strain with Xrn1 D206A; 20mM Hepes pH 7.4, 10mM MgCl2, 100mM KOAc, 0.5% Triton, 2 hours at 4°C; SDS elution; label-free quantitative LC-MS/MS, six independent experiments

Row | Molecule | binding
1 | Xrn1 (D206A), 5’-3’ exonuclease (from UniProt P22147 1-1528) (enzyme) | binds
2 | Ska1 | binds
3 | B1 | binds
4 | B2 | binds
5 | B3 | binds
6 | B4 | binds
7 | B5 | binds
